Measured data: PubChem BioAssay AID602196 (INSERM, 2012)

Purpose: 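Genes whose knock-down alters cisplatin killing of lung cancer cells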
Cell system: human A549 lung cancer cells
Reagents: siRNA pair against human genes
Timing: 48 h transfection before cisplatin; time from cisplatin to read-out not stated
Conditions: cisplatin at a dose killing half of control-siRNA cells; exact dose and duration not given
Measurement: 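Cisplatin cell death as a shift from the 50% death seen with control siRNA; siRNAs toxic or growth-blocking alone scored 0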
Direction: two-siRNA summed score (-2 to +2): higher = both siRNAs protect from cisplatin killing; -2 means both sensitise
Hit rule: 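Each siRNA scores 0 if harmful alone by LDH or WST-1, otherwise +1 if it reduces and -1 if it increases cisplatin killing; a gene is active when both siRNAs agree (sum +2 or -2)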
Calls: active = both siRNAs shift cisplatin killing the same way; inactive = no consistent shift, or siRNA harmful alone
The whole screen tested about 23,000 reagents; shown is an unselected part. 455 of them (2%) were called active. 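Active includes both protection and sensitisation; some change values fall well beyond the stated -50 to +50 range.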 A number with no mark means an inactive call. Reagents against one gene are numbered here. Further read-outs or replicates are left out here. The record does not give: the amount of reagent.

no.	Gene	reagent no.	two-siRNA summed score (-2 to +2)
1	LOC388079	1	1
2	ADGRL4 (adhesion G protein-coupled receptor L4)	1	0
3	ADGRL4 (adhesion G protein-coupled receptor L4)	2	0
4	TMEM273 (transmembrane protein 273)	1	1
5	C9orf72 (C9orf72-SMCR8 complex subunit)	1	0
6	PTPN23 (protein tyrosine phosphatase non-receptor type 23)	1	0
7	TTC27 (tetratricopeptide repeat domain 27)	1	1
8	CRYGD (crystallin gamma D)	1	0
9	MB21D2 (Mab-21 domain containing 2)	1	0
10	CDH19 (cadherin 19)	1	-1
11	DZIP3 (DAZ interacting zinc finger protein 3)	1	0
12	HSD17B14 (hydroxysteroid 17-beta dehydrogenase 14)	1	-1
13	CHMP4A (charged multivesicular body protein 4A)	1	0
14	LOC343495	1	2 (active)
15	LOXL4 (lysyl oxidase like 4)	1	0
16	OR8G5 (olfactory receptor family 8 subfamily G member 5)	1	-1
17	HPS1 (HPS1 biogenesis of lysosomal organelles complex 3 subunit 1)	1	0
18	LOC387974	1	0
19	ALMS1 (ALMS1 centrosome and basal body associated protein)	1	1
20	ANKRD35 (ankyrin repeat domain 35)	1	0
21	DBP (D-box binding PAR bZIP transcription factor)	1	1
22	IFI6 (interferon alpha inducible protein 6)	1	0
23	ZNF160 (zinc finger protein 160)	1	1
24	PODNL1 (podocan like 1)	1	0
25	TP53INP1 (tumor protein p53 inducible nuclear protein 1)	1	0
26	ZNF333 (zinc finger protein 333)	1	0
27	SLAMF8 (SLAM family member 8)	1	-1
28	CNKSR2 (connector enhancer of kinase suppressor of Ras 2)	1	0
29	LOC390985	1	1
30	CAPN9 (calpain 9)	1	0
31	LOC440462	1	1
32	USP9Y (ubiquitin specific peptidase 9 Y-linked)	1	-1
33	OR6K6 (olfactory receptor family 6 subfamily K member 6)	1	0
34	CDC16 (cell division cycle 16)	1	0
35	MRPL20-AS1 (MRPL20 antisense RNA 1)	1	0
36	AMHR2 (anti-Mullerian hormone receptor type 2)	1	0
37	SYT7 (synaptotagmin 7)	1	1
38	ZP2 (zona pellucida glycoprotein 2)	1	0
39	MAGEB3 (MAGE family member B3)	1	0
40	LOC388171	1	1
41	EPCAM (epithelial cell adhesion molecule)	1	1
42	TRIM4 (tripartite motif containing 4)	1	1
43	OXCT1 (3-oxoacid CoA-transferase 1)	1	0
44	CDCA5 (cell division cycle associated 5)	1	0
45	CDCA5 (cell division cycle associated 5)	2	0
46	TMEM132D (transmembrane protein 132D)	1	0
47	CSF2 (colony stimulating factor 2)	1	0
48	PECAM1 (platelet and endothelial cell adhesion molecule 1)	1	-1
49	MSH2 (mutS homolog 2)	1	0
50	LOC440406	1	0
51	CTNNBL1 (catenin beta like 1)	1	0
52	PDIA4 (protein disulfide isomerase family A member 4)	1	0
53	COPS3 (COP9 signalosome subunit 3)	1	0
54	INCA1 (inhibitor of CDK, cyclin A1 interacting protein 1)	1	0
55	TSPAN1 (tetraspanin 1)	1	0
56	LINC00671 (long independently transcribed non-coding RNA 671)	1	0
57	PRSS2 (serine protease 2)	1	0

Hits, among the entries above:
Gene	reagent no.	two-siRNA summed score (-2 to +2)
LOC343495	1	2 (active)
